# Record: PubChem BioAssay AID1259405 (NCATS, 2018)
# Aim: 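Mouse-designed siRNAs used to find CHO productivity engineering targets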 (primary screen)
# Cell system: Chinese hamster CHO-K1 ovary cells with stable secreted eGFP expression
# Reagents: single siRNA against mouse genes, 0.8 pmol siRNA per well (2 µl of 400 nM stock)
# Time to read-out: 3 days
# Measured: 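Per-well intracellular GFP measured by laser scanning cytometry, plus viability from ATP luminescence, each relative to plate median of non-targeting control wells, in %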
# Reading the numbers: GFP, % of control: higher = more GFP per well, higher productivity; viability (ATP), % of control: higher = more viable cells (more ATP)
# Hit rule: 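Called active when intracellular GFP, relative to negative control, is at or above 120%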
# The whole screen tested about 50,000 reagents; below is a random part of them. About 4,000 of them (8%) were called active. 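Mouse siRNA library applied to hamster cells; one well for each siRNA.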 The numbers tell different reagents against one gene apart. Reagent sequences are not shown.
"GFP, % of control","viability (ATP), % of control",call,target gene,reagent
58.9,32.2,inactive,6030452D12Rik,1
69.5,90.9,inactive,6030452D12Rik,2
85.2,127,inactive,6030452D12Rik,3
112,97,inactive,Ppp2r3c,1
65.1,62.8,inactive,Ppp2r3c,2
82,125,inactive,Ppp2r3c,3
127,89.9,active,Polk,1
74.4,59.5,inactive,Polk,2
74.1,82.3,inactive,Ttc27,1
32.6,23.5,inactive,Ttc27,2
62.9,73.1,inactive,Ttc27,3
134,89.9,active,Tmem181a,1
78.1,87.6,inactive,Tmem181a,2
118,135,inactive,Tmem181a,3
55.8,52,inactive,Dicer1,1
86.7,82.8,inactive,Dicer1,2
72,73.7,inactive,Dicer1,3
72.3,78.6,inactive,Zdhhc18,1
57.6,43.1,inactive,Zdhhc18,2
59.5,69.1,inactive,Zdhhc18,3

Called active, of those listed so far:
"GFP, % of control","viability (ATP), % of control",call,target gene,reagent
127,89.9,active,Polk,1
134,89.9,active,Tmem181a,1

Next entries:
"GFP, % of control","viability (ATP), % of control",call,target gene,reagent
112,99.1,inactive,Lypd4,1
118,104,inactive,Lypd4,2
67.9,97.1,inactive,Lypd4,3
90,88.8,inactive,Samt3,1
115,87.4,inactive,Samt3,2
61.5,71.3,inactive,Samt3,3
82.8,63.5,inactive,Bach2,1
44.3,84.1,inactive,Bach2,2
73.3,93.2,inactive,Bach2,3
72.2,82.2,inactive,Rasgrf1,1
115,38.4,inactive,Rasgrf1,2
78.1,76.4,inactive,Rasgrf1,3
38.8,47.7,inactive,Cdh17,1
75.5,61.5,inactive,Cdh17,2
124,87.4,active,Cdh17,3
